According to the supplement of paper PMC3682954:
Where “and” joins values, the source holds several entries; their conditions need not be identical. Identical values can stand only once. Counter-ions that a name gives are not always drawn. ± gives the standard deviation of the averaged measurements. The list shows a part of the results. Single values are uncertain, as repeats are few or missing.

System: RAW 264.7
Assay: cell viability (MTT) relative to vehicle control; higher = more viable cells
Details: stimulus: HMGB1 5 ug/ml, 18 h
[1] = compound concentration: 1 ug/ml

Compound	cell viability (compound concentration: 3 uM)	cell viability [1]
CCCCNC(=O)NS(=O)(=O)c1ccc(C)cc1 [Tolbutamide]	104 ± 13%	–
CCCCNC(=O)NS(=O)(=O)c1ccc(C)cc1	112%	–
CC(C)(C)NC[C@H](O)c1ccc(O)c(CO)c1	108%	–
CC(C)Nc1ncccn1	112%	–
Cc1cc2c(cc1Cl)N(C(=O)Nc1cccc3ncccc13)CC2	116%	–
CCn1cc(C(=O)O)c(=O)c2cnc(N3CCCC3)nc21	107%	–
CCn1cc(C(=O)O)c(=O)c2cnc(N3CCCC3)nc21 [Piromidic acid]	102%	–
O=S(=O)(O)CCS	102%	–
O=S(=O)(O)CCS [Mesna]	94.7%	–
CCCCCCCCCCCCC[N+](C)(C)Cc1ccccc1	62.6 ± 22%	–
CCCCCCCCCCC/C=C\C(C)(C)/C=C\CCCC(=O)O [7,7-Dimethyl-(5Z,8Z)-eicosadienoic acid]	96.7%	–
CCOc1ccccc1OCCN[C@H](C)Cc1ccc(OC)c(S(N)(=O)=O)c1 [Tamsulosin]	96.5%	–
CCN1CCCC1CN=Cc1c(O)c(O)c(C(C)C)c2cc(C)c(-c3c(C)cc4c(C(C)C)c(O)c(O)c(C=NCC5CCCN5CC)c4c3O)c(O)c12 (centres undefined)	–	99.8%
CC(C)NCC(O)COc1cccc2ccccc12 (centres undefined) [Propranolol]	88.6%	–
COc1ccc2cc([C@@H](C)C(=O)O)ccc2c1 [(R) -Naproxen sodium salt]	149%	–
Nc1nc(=O)c2c([nH]1)NC[C@@H](CNc1ccc(C(=O)N[C@@H](CCC(=O)O)C(=O)O)cc1)N2C=O [Folinic acid calcium salt]	116%	–
Oc1c2ccccc2c2c3c(cccc13)N=N2	97%	–
C[C@]12C=CC(=O)C=C1CC[C@@H]1[C@@H]2[C@@H](O)C[C@@]2(C)[C@H]1CC[C@]2(O)C(=O)COC(=O)CCC(=O)O	116% and 100%	–
C=C(C)[C@@H]1CC=C(C(=O)O)CC1 [(-)-Perillic acid]	106%	–
C=C(C)[C@@H]1CC=C(C(=O)O)CC1	95.9%	–
C=C(C)[C@@H]1CC=C(C(=O)O)CC1 [(S)-(-)-Perillic acid]	–	97.8%
COC(=O)[C@@H]1[C@H]2C[C@H]3c4[nH]c5ccccc5c4CCN3C[C@@H]2CC[C@@H]1O [Yohimbine hydrochloride]	108 ± 2.7%	–

Compound	cell viability (compound concentration: 3 uM)	cell viability [1]
COC(=O)[C@@H]1[C@H]2C[C@H]3c4[nH]c5ccccc5c4CCN3C[C@@H]2CC[C@@H]1O	101%	–
COC(=O)[C@@H]1[C@H]2C[C@H]3c4[nH]c5ccccc5c4CCN3C[C@@H]2CC[C@@H]1O [Yohimbine HCl]	101%	–
CCCCC(CC)CNC(=N)NC(=N)NCCCCCCNC(=N)NC(=N)NCC(CC)CCCC (centres undefined) [Alexidine dihydrochloride]	35.3%	–
CCCCCCc1ccc(O)cc1O	96.3%	–
CC1(C)NC(=O)N(c2ccc([N+](=O)[O-])c(C(F)(F)F)c2)C1=O [Nilutamide]	98.6 ± 13%	–
CC1(C)NC(=O)N(c2ccc([N+](=O)[O-])c(C(F)(F)F)c2)C1=O	108%	–
CC(C)C[C@H](NC(=O)[C@H]1O[C@@H]1C(=O)O)C(=O)NCCCCN=C(N)N	94.9%	–
CCC1=C(C)CN(C(=O)NCCc2ccc(S(=O)(=O)NC(=O)N[C@H]3CC[C@H](C)CC3)cc2)C1=O	96.4%	–
CCC1=C(C)CN(C(=O)NCCc2ccc(S(=O)(=O)NC(=O)N[C@H]3CC[C@H](C)CC3)cc2)C1=O [Glimepiride]	105 ± 4.5%	–
O=P(O)(O)C(Cl)(Cl)P(=O)(O)O [Clodronic acid]	103%	–
O=P(O)(O)C(Cl)(Cl)P(=O)(O)O [Clodronate]	115 ± 12%	–
CC[C@H]1OC(=O)[C@H](C)C(=O)[C@H](C)[C@@H](O[C@@H]2O[C@H](C)C[C@H](N(C)C)[C@H]2O)[C@](C)(OC)C[C@@H](C)C(=O)[C@H](C)[C@H]2N(CCCCn3cnc(-c4cccnc4)c3)C(=O)O[C@]12C	104 ± 2.3%	–
O=C(O)[C@H]1C[C@H](C(=O)O)N1 (relative stereo) [trans-Azetidine-2,4-dicarboxylic acid]	110%	–
CCCCOc1cc(C(=O)NCCN(CC)CC)c2ccccc2n1 [Dibucaine]	111%	–
CCCCOc1cc(C(=O)NCCN(CC)CC)c2ccccc2n1	94.9%	–
COc1cc(OC)c2c(c1)OC(c1ccccc1)CC2=O (centres undefined) [5,7-Dimethoxyflavanone]	–	93.3%
CCS(=O)(=O)CCn1c([N+](=O)[O-])cnc1C [Tinidazole]	120 ± 16%	–
CCS(=O)(=O)CCn1c([N+](=O)[O-])cnc1C	103 ± 1.8%	–
O=C1CCc2cc(OCCCCc3nnnn3C3CCCCC3)ccc2N1	104%	–
O=C1CCc2cc(OCCCCc3nnnn3C3CCCCC3)ccc2N1 [Cilostazol]	97.1 ± 16%	–
COc1ccc2cc1Oc1ccc(cc1)C[C@H]1c3cc(c(OC)cc3CCN1C)Oc1c(OC)c(OC)cc3c1[C@H](C2)N(C)CC3	116%	–
COc1ccc2cc1Oc1ccc(cc1)C[C@H]1c3cc(c(OC)cc3CCN1C)Oc1c(OC)c(OC)cc3c1[C@H](C2)N(C)CC3 [(S,S)-(+)-Tetrandrine]	–	98.4%
